Test results from PMC9822926.
Results are given in words; binding and its absence hold for the method and conditions named. Binding seen in cells or lysates may run through a third protein. These calls come from enrichment with a bait or labelling near it, and not all partners need be listed. Sequences can lack the tags named with a protein.

The chains behind the UniProt entries cited, without tags or fusion partners.
UniProt P51148: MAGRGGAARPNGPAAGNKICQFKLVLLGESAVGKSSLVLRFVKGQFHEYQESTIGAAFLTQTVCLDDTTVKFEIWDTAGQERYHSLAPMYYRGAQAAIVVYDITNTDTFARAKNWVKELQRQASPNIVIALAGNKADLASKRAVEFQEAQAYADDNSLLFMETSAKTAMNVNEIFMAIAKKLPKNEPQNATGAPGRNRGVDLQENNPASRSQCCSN

Biological target: T1, MFN1-HA (endogenously expressed MFN1 with an HA-tag inserted in the MFN1 alleles of HeLa cells) (human (endogenous in HeLa)) (UniProt Q8IWA4)
T1 sequence: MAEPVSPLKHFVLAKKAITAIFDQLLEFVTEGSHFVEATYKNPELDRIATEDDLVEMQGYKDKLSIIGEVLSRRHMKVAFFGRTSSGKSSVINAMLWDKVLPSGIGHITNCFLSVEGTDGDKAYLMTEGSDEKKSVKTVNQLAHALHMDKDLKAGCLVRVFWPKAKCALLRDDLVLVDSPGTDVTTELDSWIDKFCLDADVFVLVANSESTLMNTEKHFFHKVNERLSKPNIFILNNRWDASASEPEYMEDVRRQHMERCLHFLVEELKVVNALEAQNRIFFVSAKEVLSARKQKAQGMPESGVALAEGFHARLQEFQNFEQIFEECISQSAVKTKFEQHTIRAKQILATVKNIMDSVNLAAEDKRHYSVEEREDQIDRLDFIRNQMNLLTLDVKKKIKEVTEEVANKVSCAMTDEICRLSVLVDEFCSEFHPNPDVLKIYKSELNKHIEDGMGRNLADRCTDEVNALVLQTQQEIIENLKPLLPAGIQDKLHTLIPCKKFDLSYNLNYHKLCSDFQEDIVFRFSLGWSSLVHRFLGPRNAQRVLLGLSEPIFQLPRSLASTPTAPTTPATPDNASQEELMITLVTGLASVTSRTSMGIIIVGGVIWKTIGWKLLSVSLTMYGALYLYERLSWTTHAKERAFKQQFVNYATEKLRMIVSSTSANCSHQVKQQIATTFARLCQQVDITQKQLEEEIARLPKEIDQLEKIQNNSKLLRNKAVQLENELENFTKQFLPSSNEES
Experiment: affinity purification with mass spectrometry; HA-dynabeads, 12 h at 4 °C, lysates of MFN1-HA HeLa cells (WT HeLa as control); lysis 50 mM Tris pH 7.4, 150 mM NaCl, 5 mM EDTA, 1% digitonin; washes with 0.1% digitonin; SAINTexpress, BFDR ≤ 0.05

binding: binds
Substance: RAB5C (endogenous, HeLa) (from UniProt P51148 1-216)
